Assay results from patent publication JP2011097869A.
Results are given in words; binding and its absence hold for the method and conditions named. Some entries that bind do so weakly or less than the wild type.

Sequences of proteins named here, by UniProt entry; tags and fusion partners are left off. Residues count along the entry.
UniProt P29274, residues 1-316: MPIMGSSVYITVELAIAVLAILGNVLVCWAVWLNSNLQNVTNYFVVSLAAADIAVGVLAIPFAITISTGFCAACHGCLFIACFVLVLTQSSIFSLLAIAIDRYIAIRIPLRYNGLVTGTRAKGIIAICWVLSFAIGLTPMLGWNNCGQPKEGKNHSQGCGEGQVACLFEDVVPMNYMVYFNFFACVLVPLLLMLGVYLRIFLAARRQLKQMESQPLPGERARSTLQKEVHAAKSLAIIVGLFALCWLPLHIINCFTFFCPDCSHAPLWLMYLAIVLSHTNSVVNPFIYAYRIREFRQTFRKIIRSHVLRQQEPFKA

Biological target: ヒト由来A2a受容体 (human adenosine A2a receptor, recombinantly expressed in methylotrophic yeast, purified preparation) (human) (UniProt P29274)
Assay: summary of Examples 2 and 3 (ELISA, SPR, ligand binding)

B1: C2831-104 (antibody, V domains shown)
VH: EVQLQQSGAELVKPGASAKISCKASGYSFTGYNMNWVKQSRGKSLEWIGNINSYFGSTNYNQKFKGKATLTVDKSSSTAYMQLNGLTSEDSAVYYCTREGNYYDGSYVRYFDYWGQGTTLTVSS
VL: DIQMTQSPASLSASVGETVTITCRASEDIYSSLAWYQQRQGKSPQLLVYATTHLADGVPSRFSGSGSGTQFSLKINSLQPEDFGNYYCQHFYGTTWTFGGGTRLEIKR
  binding: binds
